This passage reports binding results from patent publication US20140328849A1 (Genentech, published 2014).

In test [1] the target is T1, human CRTh2 (chemoattractant receptor-homologous molecule expressed on T helper 2 cells) (human) (UniProt Q9Y5Y4).
T1 sequence: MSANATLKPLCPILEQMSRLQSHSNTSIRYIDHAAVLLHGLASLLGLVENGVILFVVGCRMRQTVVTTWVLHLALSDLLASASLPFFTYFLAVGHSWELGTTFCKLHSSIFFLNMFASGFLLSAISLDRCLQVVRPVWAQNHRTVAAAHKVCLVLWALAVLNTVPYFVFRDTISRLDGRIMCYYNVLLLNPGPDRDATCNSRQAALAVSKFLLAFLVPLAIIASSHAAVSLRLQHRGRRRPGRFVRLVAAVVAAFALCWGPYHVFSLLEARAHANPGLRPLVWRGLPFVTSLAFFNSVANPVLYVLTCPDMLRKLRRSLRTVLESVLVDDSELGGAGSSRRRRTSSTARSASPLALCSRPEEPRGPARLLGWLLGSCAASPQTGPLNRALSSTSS
Briefly: flow cytometry on 293 cells overexpressing human CRTh2.

Test [2] deals with T1, human CRTh2 (chemoattractant receptor-homologous molecule expressed on T helper 2 cells) (human). Kind of test: flow cytometry on primary human basophils and eosinophils.
The target is the same in test [3]. Briefly: flow cytometry on primary human basophils and eosinophils of PBMC; antibody at 5 and 0.5 ug/ml, labelled anti-mouse IgG [Cont.]. On the technique in general: A flow cytometer gives signals particle by particle.
Test [4] has the same target. Kind of test: flow cytometry on 293 cells expressing human CRTh2; antibody at 20, 2 and 0.2 ug/ml [Cont.].
Test [5] deals with T2, rhesus monkey CRTh2 (rhesus monkey).
T2 sequence: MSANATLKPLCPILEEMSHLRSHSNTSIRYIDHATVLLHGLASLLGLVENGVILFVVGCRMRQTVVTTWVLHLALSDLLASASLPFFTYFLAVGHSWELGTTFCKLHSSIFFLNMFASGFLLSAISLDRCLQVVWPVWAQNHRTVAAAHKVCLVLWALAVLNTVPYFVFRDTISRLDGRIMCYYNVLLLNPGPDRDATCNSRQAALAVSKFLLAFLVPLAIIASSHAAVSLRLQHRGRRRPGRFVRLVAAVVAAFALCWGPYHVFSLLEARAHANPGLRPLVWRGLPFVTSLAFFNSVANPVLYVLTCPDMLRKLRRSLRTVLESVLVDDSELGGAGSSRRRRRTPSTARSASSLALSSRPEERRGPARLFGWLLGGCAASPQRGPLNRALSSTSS
Briefly: flow cytometry on 293 cells expressing amino-terminal gD-tagged rhesus CRTh2.

The target is the same in test [6]. Kind of test: flow cytometry on primary rhesus blood basophils [Cont.].
The target is the same in test [7]. Briefly: flow cytometry on 293 or 300.19 cells overexpressing rhesus CRTh2 and on primary rhesus basophils.
The target is the same in test [8]. Kind of test: flow cytometry on 300.19 cells expressing amino-terminal Flag-tagged rhesus CRTh2.

No constants are given. Whether binding was seen depends on the method and setting. Some results given as binding are weak or reduced against the parent protein; the word gives no strength.

B1: mouse anti-human CRTh2 monoclonal antibody 31A5 (antibody, V domains shown)
VH: QVQLKESGPGLVAPSQSLSITCTVSGFSLTGYGVNWVRQPPGKGLEWLGMIWDDGTTDFDSALRSRLSISKDNSKSQVFLKMNSLQTDDTARYFCARGDYGYAMDYWGQGTSVTVSS
VL: DIQMTQSPASLSVSVGETVTITCRASVNIYSNLAWYQQRQGKSPQLLVYAATNLAEGVPSRFSGSGSGTQYSLKINSLQSEDFGSYYCQHFWVTPYTFGGGTKLEIK
B1: the binding entry in test [1], in test [2], in test [3] and in test [4] was “binds” throughout.

B2: humanized anti-CRTh2 antibody hu19A2.v1 (antibody, human IgG1, kappa, V domains shown)
VH: EVQLVESGGGLVQPGGSLRLSCAASGFTFSSYSMSWVRQAPGKGLEWVAYISNGGSTTYYPGTVEGRFTISRDNSKNTLYLQMNSLRAEDTAVYYCARHRTNWDFDYWGQGTLVTVSS
VL: DIQMTQSPSSLSASVGDRVTITCRASENIYSNLAWYQQKPGKAPKLVVYAATQLADGVPSRFSGSGSGTDYTLTISSLQPEDFATYYCQHFWITPWTFGQGTKVEIKR
On to B2, for which the binding result in test [5] was “no binding (tested: 10 ug/ml)”; in test [6], “no binding (tested: 10 ug/ml)”; in test [7], “no binding (tested: up to 10 ug/ml (FIG. 3D-3F legend))”; in test [8], “no binding (tested: 10 ug/ml)”.
